The values that follow come from US9029593B2, “Method for manufacturing spilanthol and intermediate manufacturing product therefor” (Takasago International Corporation, priority 2009, dated 2015).

The nature of this series: Sensory evaluation of aqueous solutions containing 10 ppm of N-isobutyl-2,6,8-decatrienamide. As to conditions: aqueous solution containing 10 ppm. The series is classed as in vivo. How it is done: The sensory evaluation was performed using aqueous solutions respectively containing 10 ppm of N-isobutyl-2,6,8-decatrienamide obtained in Example 2 and Comparative Example 1.

“Also recorded” adds a separate entry of the source.

On to `CC=CC=CCC/C=C/C(=O)NCC(C)C` (racemic) [Example 2, N-isobutyl-2,6,8-decatrienamide], for which the Odor result is on record as “hardly had an unusual odor; also recorded: little odor”.
